In publication PMC4740242 (Cell reports, 2016):

Tested on: Ba/F3 cells expressing T674I FIP1L1-PDGFRα
Test: cells
Details: Mus musculus, BaF3, 24 h, read-out: IC50 cell growth/viability

## Cc1ccc(NC(=O)c2ccc(CN3CCN(C)CC3)cc2)cc1Nc1nccc(-c2cccnc2)n1 [imatinib]
  IC50: 13.6 µM
